# Inconclusive results, whose numbers are uncertain, are shown with a selection of clear calls. Active and inactive are the calls of the source.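 Rule for the calls, unless noted: active = thallium flux slope above the same plate's solvent-only control mean plus 3 SD; inconclusive = the two replicate wells disagree; inactive = no significant difference from solvent-only control wells.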
# By UniProt entry, the sequences of proteins in these tests, tags left out. Where a name states a change or a piece, a line headed by the entry shows the natural chain unless it says otherwise.
# UniProt Q9H2X9: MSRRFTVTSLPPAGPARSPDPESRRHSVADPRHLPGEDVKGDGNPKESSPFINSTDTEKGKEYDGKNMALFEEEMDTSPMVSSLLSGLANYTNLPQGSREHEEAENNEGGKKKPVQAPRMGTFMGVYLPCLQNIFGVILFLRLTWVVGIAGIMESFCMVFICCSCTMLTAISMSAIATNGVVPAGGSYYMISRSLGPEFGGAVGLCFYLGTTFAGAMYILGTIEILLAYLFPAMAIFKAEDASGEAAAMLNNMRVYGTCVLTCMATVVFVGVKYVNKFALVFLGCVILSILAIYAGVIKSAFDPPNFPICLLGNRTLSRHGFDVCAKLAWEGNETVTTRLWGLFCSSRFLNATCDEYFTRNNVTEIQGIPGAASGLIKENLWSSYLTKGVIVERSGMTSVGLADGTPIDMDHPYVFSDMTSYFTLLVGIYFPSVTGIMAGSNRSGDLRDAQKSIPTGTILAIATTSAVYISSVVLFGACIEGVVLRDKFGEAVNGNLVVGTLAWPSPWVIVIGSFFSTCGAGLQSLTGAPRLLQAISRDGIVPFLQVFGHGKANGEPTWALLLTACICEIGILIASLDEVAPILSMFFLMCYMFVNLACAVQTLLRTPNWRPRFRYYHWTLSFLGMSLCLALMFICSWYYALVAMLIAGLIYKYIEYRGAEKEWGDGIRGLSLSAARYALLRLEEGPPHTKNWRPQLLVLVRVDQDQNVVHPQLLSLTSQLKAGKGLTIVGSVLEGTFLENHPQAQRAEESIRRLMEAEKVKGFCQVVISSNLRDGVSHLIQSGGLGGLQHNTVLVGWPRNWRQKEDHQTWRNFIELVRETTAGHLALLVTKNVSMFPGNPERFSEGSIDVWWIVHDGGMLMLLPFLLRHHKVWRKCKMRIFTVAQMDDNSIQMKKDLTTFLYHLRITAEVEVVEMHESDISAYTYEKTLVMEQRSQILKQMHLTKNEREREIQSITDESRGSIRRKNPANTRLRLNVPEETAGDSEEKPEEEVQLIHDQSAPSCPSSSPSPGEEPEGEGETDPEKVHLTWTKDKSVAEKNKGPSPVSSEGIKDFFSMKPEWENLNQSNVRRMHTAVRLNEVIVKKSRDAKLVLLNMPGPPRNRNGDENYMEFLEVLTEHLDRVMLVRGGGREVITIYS
# Tests used:
# [1] = biological target: Solute carrier family 12 member 5 (Homo sapiens) (UniProt Q9H2X9); assay: retest of KCC2 transport modulators without sodium – cell-based, HEK293 KCC2, thallium flux, secondary assay, confirmation (AID 1713); conditions: FluoZin2 fluorescence, at 10 µM, stronger effect = higher value
# Procedure, shortened: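 Test system: KCC2-expressing HEK cells. Medium: Sodium-free N-methylglucamine chloride buffer. Schedule: dye loading 48 min. Technique: kinetic thallium-flux fluorescence imaging.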
# [2] = biological target: Solute carrier family 12 member 5 (Homo sapiens) (UniProt Q9H2X9); assay: retest of KCC2 transport modulation, ouabain-free – cell-based, HEK293 KCC2, thallium flux, FluoZin2, secondary assay 2, confirmation (AID 1715;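 active = thallium flux slope more than 3 SD above or below the plate's solvent-only control mean, mostly below; inconclusive = the two repeat wells disagreed; inactive = no significant shift from solvent-only controls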;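 note: raw slope with 0.1% DMSO as baseline and bumetanide as block control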); conditions: HEK293-KCC2, thallium flux FluoZin2 fluorescence; at 10 µM; actives lie on both sides; F/F0 rise rate, 10–20 s post-thallium
# [3] = compound effects on native HEK Tl+ uptake – HEK cells, counterscreen 1, counter-screen for KCC2 modulator project, confirmation (AID 1716;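 active = thallium flux rate significantly above the same plate's solvent-only control wells, beyond their mean plus 3 SD; inconclusive = the two replicate wells gave conflicting results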); conditions: HEK293 parental cells, thallium flux FluoZin2, ouabain; at 10 µM; baseline-ratio fluorescence slope, 10–20 s after thallium
# [4] = biological target: Solute carrier family 12 member 5 (Homo sapiens) (UniProt Q9H2X9); assay: modulation of KCC2 thallium flux in HEK cells – cell-based, ouabain, retest, confirmation (AID 1717;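 active = thallium flux slope beyond 3 SD from same-plate DMSO control mean in most replicates, usually higher, sometimes lower; inconclusive = repeat tests gave conflicting results; inactive = no significant difference from controls in most replicates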;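 note: slope of initial-normalized fluorescence between seconds 10 and 20 after thallium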); conditions: HEK293-KCC2, thallium flux FluoZin2 fluorescence, at 10 µM, bidirectional: low = inhibitor, high = activator
# [5] = native HEK Tl+ uptake effects, second counter-screen – HEK cells, counterscreen 2, counter-screen for KCC2 modulator project, confirmation (AID 1718;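 active = thallium flux slope above the same plate's solvent-control mean plus 3 SD in both duplicate wells; inconclusive = duplicate wells that disagreed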;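 note: run without ouabain in cells lacking the KCC2 cotransporter; slope of fluorescence scaled to its starting value between 10 and 20 s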); conditions: HEK293 parental, thallium flux FluoZin-2 fluorescence slope; at 10 µM
# Procedure, shortened: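 Read-out: thallium influx rate; assay system: parental HEK cells; replication: slope calculated separately for each replicate well; signal: FluoZin2-AM fluorescence (0.5 µM), ex 480 nm, em 540 nm, kinetic 1 Hz; benchmarks: bumetanide 2 mM; schedule: overnight cell culture at 37 °C, 48 min dye loading, compound before thallium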
Compound,normalised thallium flux (F/F0 slope) [1],normalized thallium flux [2],thallium flux rate (normalised fluorescence) [3],"raw Tl+ flux slope (below DMSO = inhibition, above = activation) [4]",thallium flux slope [5]
CC(=O)c1cc(NC(=O)c2ccc(Cl)cc2)c(=O)oc1/C=C/N(C)C,inconclusive: 0.013,active: 0.0205,active: 0.0027,,
Cc1ccc(-n2cc(-c3ccc([N+](=O)[O-])cc3)[nH]c2=S)c(C)c1,inconclusive: 0.00786,active: 0.0771,active: 0.0864,active: 0.0805,
Nc1ccc(C(=O)OCC(=O)N2CCc3ccccc3C2)cc1[N+](=O)[O-],inactive: 0.00566,active: 0.0273,inconclusive: 0.00707,,
O=C(/C=C/c1ccccc1)Nc1nnc(-c2ccco2)o1,inactive: 0.007,inactive: 0.0277,inconclusive: 0.00858,inactive: 0.0192,
Clc1ccc(-c2csc(NNC3=NCCCCC3)n2)cc1,inconclusive: 0.0063,inactive: 0.0304,inactive: 0.00728,,
N#Cc1ccccc1Sc1ccccc1C(=O)OCc1nnc(-c2ccccc2)o1,inconclusive: 0.00581,inactive: 0.0311,active: 0.0102,inconclusive: 0.0184,
Cc1nn(-c2ccc(F)cc2)c(Cl)c1/C=C(\CC(=O)O)c1nc2ccccc2s1,inactive: 0.00881,inconclusive: 0.0249,inactive: 0.00661,,inactive: 0.00983
O=C(NCCCc1ccccc1)c1cc([N+](=O)[O-])ccc1Cl,inconclusive: 0.00424,active: 0.0204,inconclusive: 0.00677,,
Cn1c(CSc2nc3ccccc3s2)n[nH]c1=S,inconclusive: 0.00766,inconclusive: 0.0255,inactive: 0.00713,,inconclusive: 0.0112
CC(C)Sc1nnc([C@H](Cc2c[nH]c3ccccc23)NC(=O)OC(C)(C)C)o1,inactive: 0.00692,active: 0.028,inconclusive: 0.00652,,
O=C(COc1ccc(Cl)cc1)Nc1nnc(-c2ccc3c(c2)CCCC3)o1,inconclusive: 0.0129,inactive: 0.0368,inconclusive: 0.0126,active: 0.0321,inconclusive: 0.0135
COc1ccc(S(=O)(=O)Nc2ccccc2C(=O)NCc2ccco2)cc1Br,inconclusive: 0.00481,active: 0.0233,active: 0.0049,,
O=C(NC(=S)Nc1cnc2ccccc2c1)c1ccccc1,inconclusive: 0.02,inactive: 0.0325,active: 0.0123,,
Cc1ccc(N/N=C/c2c(C)c(C#N)c(=O)n(C)c2O)cc1C,inactive: 0.0103,inactive: 0.0353,inconclusive: 0.0064,inactive: 0.0191,inactive: 0.0107
Cc1ccc(-c2csc(NC(=O)CCNC(=O)c3ccccc3Cl)n2)cc1,inactive: 0.00613,inconclusive: 0.027,inactive: 0.0076,inconclusive: 0.0181,
Cc1cc2nc(-c3ccc(SCc4ccc(C(=O)O)cc4)nc3)[nH]c2cc1C,inactive: 0.00718,inactive: 0.0263,inconclusive: 0.00596,,
Cc1ccc(Nc2nnc(SC/C(O)=C(\C#N)c3nc4ccccc4[nH]3)s2)c(C)c1,inconclusive: 0.00618,inconclusive: 0.0278,inconclusive: 0.00878,active: 0.014,
COc1ccc(C(=O)NC(=S)NNC(=O)c2ccc3ccccc3n2)cc1,inconclusive: 0.00921,inconclusive: 0.0445,active: 0.0673,active: 0.0629,
O=C(Nc1ccc2ccccc2c1)C(=O)C1C(=O)Nc2ccccc21 (stereo not drawn),inconclusive: 0.019,inconclusive: 0.0279,,inactive: 0.0215,
Cc1ccc2[nH]c(=O)c(CN(CCc3ccccc3)Cc3nnnn3CC3CCCO3)cc2c1 (stereo not drawn),inconclusive: 0.00536,inconclusive: 0.0263,,inactive: 0.0173,
O=C(NC(=S)N1CCN(C/C=C/c2ccccc2)CC1)c1ccco1,inactive: 0.00549,inactive: 0.0325,,inconclusive: 0.0234,
CCOC(=O)C1(CCCc2ccccc2)CCN(Cc2cnc(C)s2)CC1,inconclusive: 0.00618,inconclusive: 0.0275,,inactive: 0.0238,
O=c1oc(-c2ccc(F)cc2)nc2ccsc12,inactive: 0.00605,inactive: 0.0316,inconclusive: 0.00664,,inactive: 0.01
C/C(=N\NC(=S)Nc1cccc(C)c1)c1ccco1,active: 0.0277,inconclusive: 0.0528,,active: 0.0578,
CCN(CC(=O)NC(C)(C)C)C(=O)COc1c(Cl)cc(Cl)c2ccc(C)nc12,active: 0.02,inactive: 0.0357,inconclusive: 0.0466,,inconclusive: 0.0195
C/C(=N\NC(=O)c1ccc([N+](=O)[O-])c(C)c1)c1ccccc1Cl,inconclusive: 0.0118,inactive: 0.0379,inconclusive: 0.0226,,inconclusive: 0.0142
O=c1c2ccccc2[nH]c(=S)n1Cc1cccs1,inconclusive: 0.0105,inactive: 0.0295,,active: 0.0407,

Compound,normalised thallium flux (F/F0 slope) [1],normalized thallium flux [2],thallium flux rate (normalised fluorescence) [3],"raw Tl+ flux slope (below DMSO = inhibition, above = activation) [4]",thallium flux slope [5]
Fc1ccc(COc2ccc3ccccc3c2CNc2nn[nH]n2)cc1,inactive: 0.00612,active: 0.0207,inconclusive: 0.00647,,inconclusive: 0.00967
COC(=O)c1sc(NC(=S)NC(=O)c2ccc(C)cc2)nc1C,active: 0.0256,inconclusive: 0.0435,,active: 0.0617,
COc1cc2c(cc1OC)C(C)N(C(=S)NC(=O)c1ccccc1)CC2 (stereo not drawn),inconclusive: 0.00939,active: 0.0431,active: 0.0413,,active: 0.0295
O=C(CSc1ncnc2sc3c(c12)CCCC3)c1ccco1,inconclusive: 0.0147,inactive: 0.0378,inconclusive: 0.0196,,inconclusive: 0.0157
CCCCC(=O)Nc1ccc(NC(=S)NC(=O)c2ccco2)cc1OC,active: 0.0222,inconclusive: 0.0356,active: 0.0202,,active: 0.0219
CC(C)Oc1cccc(-c2cc(C(=O)NC(=S)N(C)c3ccccc3C(=O)O)c3ccccc3n2)c1,inconclusive: 0.00472,inactive: 0.033,,inconclusive: 0.0244,
CCC1(c2ccc(Cl)cc2)NC(=S)N(c2ccc(C)cc2)N1 (stereo not drawn),active: 0.0406,inconclusive: 0.0426,,active: 0.0744,
C/C(N)=C(/C#N)C(=O)CSc1nc2ccccc2c(=O)n1Cc1ccc(F)cc1,inconclusive: 0.00898,active: 0.0526,,active: 0.0614,
Cc1ccc2c(c1)nnn2C1CCN(S(=O)(=O)c2cccc(S(=O)(=O)N(C)C)c2)CC1,inactive: 0.00688,inconclusive: 0.0262,,inconclusive: 0.0168,
Fc1ccccc1CSc1nncn1NC/C=C/c1ccccc1,inactive: 0.00727,inconclusive: 0.0276,,inactive: 0.017,
Fc1ccccc1-n1cc(-c2ccccc2)[nH]c1=S,active: 0.0193,inconclusive: 0.0384,,active: 0.0798,
O=C1CC(c2ccccc2)=NN1c1nc(-c2ccccc2)cs1,active: 0.0133,inactive: 0.03,active: 0.013,,inconclusive: 0.0109
O=C(c1ccc2c3n(nc2c1)-c1ccc(Cl)cc1CO3)N1CCCCC1,inactive: 0.00666,inconclusive: 0.0261,,inconclusive: 0.017,
N#Cc1nc(Cc2cccc3ccccc23)oc1NCc1ccco1,inconclusive: 0.00573,inconclusive: 0.0319,inconclusive: 0.00316,,inactive: 0.0109
CCc1nnc(NC(=O)C2CCCN(S(=O)(=O)c3ccccc3)C2)s1 (stereo not drawn),inconclusive: 0.00479,inactive: 0.0298,,inactive: 0.0192,
COc1ccccc1NC(=O)C(=O)/C=C(\O)c1ccccc1,inconclusive: 0.0195,active: 0.0617,,active: 0.064,
COc1ccc2c(C)cc3n[nH]c(=S)n3c2c1,active: 0.0229,inconclusive: 0.0358,active: 0.0282,,active: 0.0295
O=C(Cn1nc(-c2ccccc2F)ccc1=O)NCc1ccc2c(c1)OCO2,inconclusive: 0.019,inconclusive: 0.0249,,inactive: 0.0136,
Cc1cccc(NC(=S)N/N=C(\c2ccccc2)C(C)C)c1,inactive: 0.00592,active: 0.0503,,active: 0.0551,
NC(=S)N=Nc1c(O)n(Cc2ccc(F)cc2)c2ccccc12,inconclusive: 0.00845,inactive: 0.0331,,active: 0.0289,
CCC(CC)NC(=O)CSc1nnc(-c2c[nH]c3ccccc23)o1,inconclusive: 0.0045,active: 0.0248,,inconclusive: 0.0165,
CCOc1cc(OCC)cc(C(=O)NC(=S)Nc2cccc(C(F)(F)F)c2)c1,inactive: 0.00577,inactive: 0.0343,,inconclusive: 0.023,
S=c1[nH]nc(Nc2cccc(Cl)c2)s1,inactive: 0.00606,active: 0.0198,,inconclusive: 0.0151,
O=C(NCc1ccccc1)c1sc(=S)n2c1[nH]c(=O)c1ccccc12,inactive: 0.0053,inconclusive: 0.0373,,active: 0.0537,
O=C(NC(=S)Nc1cccc([N+](=O)[O-])c1)c1ccco1,active: 0.0217,inconclusive: 0.0444,inconclusive: 0.0353,,active: 0.0246
Cc1onc(-c2ccccc2)c1C(=O)NNC(=S)NC(=O)c1ccc2c(c1)OCO2,active: 0.014,inactive: 0.0355,inconclusive: 0.0104,,inconclusive: 0.0132

# Part of the list above, as tab-separated lines:
Compound	normalised thallium flux (F/F0 slope) [1]	normalized thallium flux [2]	thallium flux rate (normalised fluorescence) [3]	raw Tl+ flux slope (below DMSO = inhibition, above = activation) [4]	thallium flux slope [5]
CCC1(c2ccc(Cl)cc2)NC(=S)N(c2ccc(C)cc2)N1 (stereo not drawn)	active: 0.0406	inconclusive: 0.0426		active: 0.0744	
C/C(N)=C(/C#N)C(=O)CSc1nc2ccccc2c(=O)n1Cc1ccc(F)cc1	inconclusive: 0.00898	active: 0.0526		active: 0.0614	
Cc1ccc2c(c1)nnn2C1CCN(S(=O)(=O)c2cccc(S(=O)(=O)N(C)C)c2)CC1	inactive: 0.00688	inconclusive: 0.0262		inconclusive: 0.0168	
Fc1ccccc1CSc1nncn1NC/C=C/c1ccccc1	inactive: 0.00727	inconclusive: 0.0276		inactive: 0.017	
Fc1ccccc1-n1cc(-c2ccccc2)[nH]c1=S	active: 0.0193	inconclusive: 0.0384		active: 0.0798	
O=C1CC(c2ccccc2)=NN1c1nc(-c2ccccc2)cs1	active: 0.0133	inactive: 0.03	active: 0.013		inconclusive: 0.0109
O=C(c1ccc2c3n(nc2c1)-c1ccc(Cl)cc1CO3)N1CCCCC1	inactive: 0.00666	inconclusive: 0.0261		inconclusive: 0.017	
N#Cc1nc(Cc2cccc3ccccc23)oc1NCc1ccco1	inconclusive: 0.00573	inconclusive: 0.0319	inconclusive: 0.00316		inactive: 0.0109
CCc1nnc(NC(=O)C2CCCN(S(=O)(=O)c3ccccc3)C2)s1 (stereo not drawn)	inconclusive: 0.00479	inactive: 0.0298		inactive: 0.0192	
COc1ccccc1NC(=O)C(=O)/C=C(\O)c1ccccc1	inconclusive: 0.0195	active: 0.0617		active: 0.064	
COc1ccc2c(C)cc3n[nH]c(=S)n3c2c1	active: 0.0229	inconclusive: 0.0358	active: 0.0282		active: 0.0295
O=C(Cn1nc(-c2ccccc2F)ccc1=O)NCc1ccc2c(c1)OCO2	inconclusive: 0.019	inconclusive: 0.0249		inactive: 0.0136	
Cc1cccc(NC(=S)N/N=C(\c2ccccc2)C(C)C)c1	inactive: 0.00592	active: 0.0503		active: 0.0551	
NC(=S)N=Nc1c(O)n(Cc2ccc(F)cc2)c2ccccc12	inconclusive: 0.00845	inactive: 0.0331		active: 0.0289	
CCC(CC)NC(=O)CSc1nnc(-c2c[nH]c3ccccc23)o1	inconclusive: 0.0045	active: 0.0248		inconclusive: 0.0165	

# — PubChem BioAssay
